Drawing on PMC10654515, this text covers binding for 1 substance.

The chains behind the UniProt entries cited, without tags or fusion partners.
UniProt Q7KZF4: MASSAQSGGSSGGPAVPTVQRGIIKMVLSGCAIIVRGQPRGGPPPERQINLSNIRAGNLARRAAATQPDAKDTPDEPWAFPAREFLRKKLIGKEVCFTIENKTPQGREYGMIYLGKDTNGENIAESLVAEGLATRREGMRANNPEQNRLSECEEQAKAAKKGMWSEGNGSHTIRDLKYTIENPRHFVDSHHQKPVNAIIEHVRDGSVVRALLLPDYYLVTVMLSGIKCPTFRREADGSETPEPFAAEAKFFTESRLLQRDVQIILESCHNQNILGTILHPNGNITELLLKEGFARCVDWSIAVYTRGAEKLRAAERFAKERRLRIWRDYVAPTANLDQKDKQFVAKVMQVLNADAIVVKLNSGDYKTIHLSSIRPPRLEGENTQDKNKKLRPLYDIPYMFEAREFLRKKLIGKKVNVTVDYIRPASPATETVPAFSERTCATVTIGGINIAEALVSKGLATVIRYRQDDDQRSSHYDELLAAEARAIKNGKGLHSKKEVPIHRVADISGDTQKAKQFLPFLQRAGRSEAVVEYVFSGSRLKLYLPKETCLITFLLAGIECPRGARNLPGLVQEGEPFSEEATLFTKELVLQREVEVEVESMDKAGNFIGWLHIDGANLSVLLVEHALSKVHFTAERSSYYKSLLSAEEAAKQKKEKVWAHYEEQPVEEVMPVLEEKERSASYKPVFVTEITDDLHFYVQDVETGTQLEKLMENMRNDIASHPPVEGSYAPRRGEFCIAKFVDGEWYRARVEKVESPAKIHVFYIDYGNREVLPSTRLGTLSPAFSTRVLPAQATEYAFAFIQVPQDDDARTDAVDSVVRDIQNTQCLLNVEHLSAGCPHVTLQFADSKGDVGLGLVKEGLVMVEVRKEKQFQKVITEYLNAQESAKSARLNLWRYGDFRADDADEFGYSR

For test [1], the target named is T1, C-terminal VA (3xFLAG-2xTEV-6xHIS-StrepIII-Beacon) tagged ERG (human) (UniProt P11308).
T1 sequence: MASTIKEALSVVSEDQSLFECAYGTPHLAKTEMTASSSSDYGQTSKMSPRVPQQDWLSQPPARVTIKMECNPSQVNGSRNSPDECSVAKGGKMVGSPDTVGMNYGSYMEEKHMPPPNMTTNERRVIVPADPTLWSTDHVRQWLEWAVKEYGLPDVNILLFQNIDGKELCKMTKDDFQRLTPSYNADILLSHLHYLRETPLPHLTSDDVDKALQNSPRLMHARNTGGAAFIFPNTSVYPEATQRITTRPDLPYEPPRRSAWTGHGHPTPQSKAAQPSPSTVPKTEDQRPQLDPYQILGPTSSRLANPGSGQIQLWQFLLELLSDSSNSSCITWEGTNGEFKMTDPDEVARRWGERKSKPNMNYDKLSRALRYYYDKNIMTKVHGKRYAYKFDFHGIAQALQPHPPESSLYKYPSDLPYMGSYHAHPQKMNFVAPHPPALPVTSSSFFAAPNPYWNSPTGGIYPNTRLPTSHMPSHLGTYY
In words: affinity purification with mass spectrometry; lysates of VCaP cells stably expressing VA-tagged ERG or GFP; anti-Flag M2 antibody on Protein G Dynabeads, 2 h at 4 °C; TBS (30 mM Tris-HCl pH 7.5, 150 mM NaCl) with 0.5% Nonidet P40; on-bead trypsin digest, Orbitrap Velos.

For test [2], the target named is T2, N-terminal VA (3xFLAG-2xTEV-6xHIS-StrepIII-Beacon) tagged ERG (human) (UniProt P11308).
T2 sequence: T1 sequence
The test is described as above.

No constants are given. Whether binding was seen depends on the method and setting. In cells and extracts the contact can be indirect. A yes stands for co-enrichment or nearness to the bait. Other partners may have been found. Sequences can lack the tags named with a protein.

Turning to “SND1 (endogenous, VCaP cells) (from UniProt Q7KZF4 1-910)”, the binding result in test [1] and in test [2] was “binds” throughout.
